{"source": "the supplement of paper PMC4604168 (melanoma cell lines)", "note": "This is one part of the list. Single values are uncertain, as repeats are few or missing.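 Cells were imaged in 1,536-well plates, and nuclei stained with an antibody against cleaved PARP were counted against all DNA-stained nuclei to give the apoptosis fraction. Screening doses were chosen to leave most cells alive, and resting and induced cleaved-PARP levels differ strongly between cell lines.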"}
{"tested_on": "SkMel28", "test": "cleaved PARP positive nuclei fraction relative to DMSO control; melanoma cells; higher = more apoptosis", "conditions": "library dose: low library concentration; 72 h", "units": {"cleaved PARP positive nuclei fraction": "%"}}
{"smiles": "COc1cc([C@@H]2c3cc4c(cc3[C@@H](O[C@@H]3O[C@@H]5CO[C@@H](C)O[C@H]5[C@H](O)[C@H]3O)[C@H]3COC(=O)[C@H]23)OCO4)cc(OC)c1O", "note": "[etoposide] + Cc1nc(Nc2ncc(C(=O)Nc3c(C)cccc3Cl)s2)cc(N2CCN(CCO)CC2)n1 [dasatanib] (first compound 0.02 µM, partner dose 0.004 µM)", "cleaved PARP positive nuclei fraction": 87.2}
{"smiles": "CC[C@]1(O)C[C@H]2CN(CCc3c([nH]c4ccccc34)[C@@](C(=O)OC)(c3cc4c(cc3OC)N(C=O)[C@H]3[C@@](O)(C(=O)OC)[C@H](OC(C)=O)[C@]5(CC)C=CCN6CC[C@]43[C@@H]65)C2)C1", "note": "[vincristine] + Cc1ccc(Nc2nccc(N(C)c3ccc4c(C)n(C)nc4c3)n2)cc1S(N)(=O)=O [Pazopanib] (first compound 0.0001 µM, partner dose 0.4 µM)", "cleaved PARP positive nuclei fraction": 122}
{"smiles": "O=C(/C=C/c1cccnc1)NCCCCC1CCN(C(=O)c2ccccc2)CC1", "note": "+ Cn1c(=O)n(-c2ccc(C(C)(C)C#N)cc2)c2c3cc(-c4cnc5ccccc5c4)ccc3ncc21 [NVP-BEZ235] (first compound 0.01 µM, partner dose 0.004 µM)", "cleaved PARP positive nuclei fraction": 357}
{"smiles": "O=C(/C=C/c1cccnc1)NCCCCC1CCN(C(=O)c2ccccc2)CC1", "note": "+ Cc1cn(-c2cc(NC(=O)c3ccc(C)c(Nc4nccc(-c5cccnc5)n4)c3)cc(C(F)(F)F)c2)cn1 [nilotinib] (first compound 0.01 µM, partner dose 0.2 µM)", "cleaved PARP positive nuclei fraction": 99}
{"smiles": "O=C(/C=C/c1cccnc1)NCCCCC1CCN(C(=O)c2ccccc2)CC1", "note": "+ COCC[n+]1c2c(n(Cc3cnccn3)c1C)C(=O)c1ccccc1C2=O [YM155] (first compound 0.01 µM, partner dose 0.0004 µM)", "cleaved PARP positive nuclei fraction": 200}
{"smiles": "COc1cc([C@@H]2c3cc4c(cc3[C@@H](O[C@@H]3O[C@@H]5CO[C@@H](C)O[C@H]5[C@H](O)[C@H]3O)[C@H]3COC(=O)[C@H]23)OCO4)cc(OC)c1O", "note": "[etoposide] + O=c1[nH]nc(Sc2ncc([N+](=O)[O-])s2)n1-c1ccc2c(c1)OCCO2 [BI78D3] (first compound 0.02 µM, partner dose 0.2 µM)", "cleaved PARP positive nuclei fraction": 200}
{"smiles": "Cc1cc(Nc2cc(N3CCN(C)CC3)nc(Sc3ccc(NC(=O)C4CC4)cc3)n2)n[nH]1", "note": "[Tozasertib] + C[C@@H](Oc1cc(-c2cnn(C3CCNCC3)c2)cnc1N)c1c(Cl)ccc(F)c1Cl [Crizotinib] (first compound 0.006 µM, partner dose 0.2 µM)", "cleaved PARP positive nuclei fraction": 75.9}
{"smiles": "O=C(Nc1cc(C(F)(F)F)cc(C(F)(F)F)c1)c1cc(Cl)ccc1O", "note": "+ COCC[n+]1c2c(n(Cc3cnccn3)c1C)C(=O)c1ccccc1C2=O [YM155] (first compound 0.016 µM, partner dose 0.0004 µM)", "cleaved PARP positive nuclei fraction": 37.5}
{"smiles": "O=c1[nH]nc(Sc2ncc([N+](=O)[O-])s2)n1-c1ccc2c(c1)OCCO2", "note": "+ CCCCCCCCc1ccc(CCC(N)(CO)CO)cc1 [fingolimod] (first compound 0.2 µM, partner dose 2 µM)", "cleaved PARP positive nuclei fraction": 44}
